## Library screen at single concentrations

By UniProt entry, the sequences of proteins in these tests, tags left out. Residues count along the entry.
UniProt I6X8D2, whole entry: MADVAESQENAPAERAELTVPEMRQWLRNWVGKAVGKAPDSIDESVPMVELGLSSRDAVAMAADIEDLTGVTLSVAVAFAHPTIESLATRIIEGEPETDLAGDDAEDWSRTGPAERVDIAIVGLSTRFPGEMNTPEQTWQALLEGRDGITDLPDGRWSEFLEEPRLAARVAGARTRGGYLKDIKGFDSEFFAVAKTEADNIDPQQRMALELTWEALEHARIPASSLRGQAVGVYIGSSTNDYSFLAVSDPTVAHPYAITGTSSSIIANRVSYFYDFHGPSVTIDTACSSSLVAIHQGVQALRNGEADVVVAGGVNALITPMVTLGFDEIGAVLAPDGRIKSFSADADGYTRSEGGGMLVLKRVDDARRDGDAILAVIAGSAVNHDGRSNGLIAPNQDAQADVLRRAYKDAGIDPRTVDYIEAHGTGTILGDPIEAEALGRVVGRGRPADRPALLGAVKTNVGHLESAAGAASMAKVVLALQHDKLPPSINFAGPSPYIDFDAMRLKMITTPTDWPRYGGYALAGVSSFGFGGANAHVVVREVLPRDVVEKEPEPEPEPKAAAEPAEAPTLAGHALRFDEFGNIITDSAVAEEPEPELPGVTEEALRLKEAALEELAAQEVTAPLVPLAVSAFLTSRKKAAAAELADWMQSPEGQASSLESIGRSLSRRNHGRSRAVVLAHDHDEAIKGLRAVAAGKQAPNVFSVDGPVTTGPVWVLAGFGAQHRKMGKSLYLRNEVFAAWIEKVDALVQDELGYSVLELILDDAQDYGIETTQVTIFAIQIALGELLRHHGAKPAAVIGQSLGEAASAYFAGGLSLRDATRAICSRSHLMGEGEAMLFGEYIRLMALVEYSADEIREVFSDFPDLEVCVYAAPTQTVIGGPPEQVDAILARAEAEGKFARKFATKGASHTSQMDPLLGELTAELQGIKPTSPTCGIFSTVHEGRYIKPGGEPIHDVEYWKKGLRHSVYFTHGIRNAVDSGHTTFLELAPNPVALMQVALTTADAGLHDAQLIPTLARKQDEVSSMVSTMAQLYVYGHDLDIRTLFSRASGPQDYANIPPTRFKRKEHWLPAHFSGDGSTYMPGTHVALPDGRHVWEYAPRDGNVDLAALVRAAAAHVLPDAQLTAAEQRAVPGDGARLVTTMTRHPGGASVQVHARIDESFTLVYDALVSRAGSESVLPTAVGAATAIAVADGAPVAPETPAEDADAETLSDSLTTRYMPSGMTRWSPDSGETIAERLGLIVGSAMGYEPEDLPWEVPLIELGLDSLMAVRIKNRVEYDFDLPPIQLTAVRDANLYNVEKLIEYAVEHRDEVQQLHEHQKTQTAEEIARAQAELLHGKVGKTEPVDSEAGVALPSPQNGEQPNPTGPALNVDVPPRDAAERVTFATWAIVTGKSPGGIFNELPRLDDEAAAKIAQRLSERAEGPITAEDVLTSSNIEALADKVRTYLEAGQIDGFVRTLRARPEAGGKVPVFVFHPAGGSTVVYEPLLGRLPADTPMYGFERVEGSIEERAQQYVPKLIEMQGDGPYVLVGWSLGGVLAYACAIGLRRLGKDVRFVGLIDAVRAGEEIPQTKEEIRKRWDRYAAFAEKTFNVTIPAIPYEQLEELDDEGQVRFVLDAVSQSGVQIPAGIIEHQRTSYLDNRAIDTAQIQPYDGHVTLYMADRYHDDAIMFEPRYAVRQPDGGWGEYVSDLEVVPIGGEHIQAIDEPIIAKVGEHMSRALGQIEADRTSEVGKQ
UniProt A4I591, 1-473: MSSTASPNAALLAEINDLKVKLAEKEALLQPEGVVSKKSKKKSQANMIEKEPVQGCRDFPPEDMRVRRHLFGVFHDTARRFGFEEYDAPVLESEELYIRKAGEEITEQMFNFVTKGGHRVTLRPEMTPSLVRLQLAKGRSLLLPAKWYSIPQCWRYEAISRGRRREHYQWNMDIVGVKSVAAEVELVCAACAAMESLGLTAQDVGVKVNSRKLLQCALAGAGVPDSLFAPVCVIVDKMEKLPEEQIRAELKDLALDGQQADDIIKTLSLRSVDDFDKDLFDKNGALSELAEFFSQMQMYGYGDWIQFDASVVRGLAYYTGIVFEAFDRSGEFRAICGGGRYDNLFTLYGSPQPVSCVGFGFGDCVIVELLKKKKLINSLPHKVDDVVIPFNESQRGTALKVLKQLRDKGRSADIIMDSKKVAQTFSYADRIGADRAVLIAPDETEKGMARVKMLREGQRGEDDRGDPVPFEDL
UniProt P9WNZ1, whole entry: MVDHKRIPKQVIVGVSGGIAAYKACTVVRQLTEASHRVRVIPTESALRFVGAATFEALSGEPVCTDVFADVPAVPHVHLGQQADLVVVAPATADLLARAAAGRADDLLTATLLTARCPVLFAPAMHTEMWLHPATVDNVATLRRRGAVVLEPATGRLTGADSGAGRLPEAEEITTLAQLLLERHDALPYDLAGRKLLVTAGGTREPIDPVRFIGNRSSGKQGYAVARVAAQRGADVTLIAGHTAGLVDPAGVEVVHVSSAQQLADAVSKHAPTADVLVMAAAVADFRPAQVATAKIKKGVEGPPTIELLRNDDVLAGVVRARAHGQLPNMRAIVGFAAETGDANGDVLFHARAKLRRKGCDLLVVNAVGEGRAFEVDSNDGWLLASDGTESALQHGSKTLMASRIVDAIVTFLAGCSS

Measurements from “University of Dundee, Small-Polar-MMV Screening Library” (2021), ChEMBL document CHEMBL3988442.

Pks13 thioesterase: 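Polyketide synthase Pks13, Mycobacterium tuberculosis (UniProt I6X8D2). Enzyme assay of the thioesterase domain of polyketide synthase 13; the read-out is not stated. Concentration: 30 µM. The record gives no direction; the compounds picked for IC50 retests had high values, so higher reads as stronger inhibition. Size under these conditions: about 67,000 compounds, about 300 of them at 50% or above in at least one test.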
LiHisRS: 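Histidine-tRNA ligase, Leishmania infantum (UniProt A4I591). Enzyme assay of histidyl-tRNA synthetase; the read-out is not stated. Tested at 30 µM. Higher reads as stronger inhibition (inferred: compounds with an IC50 in retests scored well above the rest). The assay is labelled LdHisRS but filed under L. infantum. Of about 69,000 compounds tested this way, about 410 (0.6%) reached 50% or more in at least one test.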
CoaBC: 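Enzyme assay of CoaBC with a phosphate dye (Biomol Green) read at 650 nm. Target: Coenzyme A biosynthesis protein CoaBC, Mycobacterium tuberculosis (UniProt P9WNZ1). Tested at 30 µM. Higher reads as stronger inhibition, judged from the few compounds that gave an IC50. Most strong results did not repeat in a second test. About 67,000 compounds were tested under these conditions; 0.06% (about 40) showed 50% or more at least once.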

Values are the deposited “Percent Effect”, in %.
The record does not define 0% and 100%; most values in the screen are far below 50% and negative numbers occur (in some assays of this library far below -100).
This is an unselected part of the compounds tested.

* COCCOc1ncccc1C(=O)Nc1c(C)cnn1CC1CC1 : Pks13 thioesterase: -6.189%; LiHisRS: 1.613%; CoaBC: 8.802%
* COc1ccc(CN2CCN(C(C)=O)CC2)cc1SC(F)(F)F : Pks13 thioesterase: -21.88%; LiHisRS: 8.547%; CoaBC: 2.991%
* CCSc1cccc(NCc2cccnc2)c1 : Pks13 thioesterase: -2.876%; LiHisRS: 3.333%; CoaBC: -0.1167%
* Cc1ccc(C(=O)NCc2ccnc(C3CCCOC3)n2)s1 (stereo not drawn) : Pks13 thioesterase: -16.77%; LiHisRS: 0%; CoaBC: 14.53%
* Cc1nn(C)c(N(C)C)c1CNCc1nnc2n1CCCCC2 : Pks13 thioesterase: -46.29%; LiHisRS: 10.67%; CoaBC: 7.438%
* Cc1cc(CC(C)NC2CCN(CC(C)C)CC2)[nH]n1 (stereo not drawn) : Pks13 thioesterase: -13.74%; LiHisRS: 14.75%; CoaBC: -3.247%
* O=C(NCC(c1ccc(F)cc1)N1CCOCC1)Nc1cn[nH]c1 (stereo not drawn) : Pks13 thioesterase: -45.64%; LiHisRS: 9.735%; CoaBC: 2.089%
* CC(C)CC(C(=O)N1CCCSCC1)N1CCCCC1=O (stereo not drawn) : Pks13 thioesterase: 0.01942%; LiHisRS: -4.386%; CoaBC: 5.305%
* NC(=O)C1CCCN1C1CCN(C(=O)c2cccc3c2OCO3)CC1 (stereo not drawn) : Pks13 thioesterase: -13.62%; LiHisRS: 23.89%; CoaBC: -4.907%
* Cn1nnnc1SC1CCCN(c2cccc(F)c2)C1=O (stereo not drawn) : Pks13 thioesterase: -20.24%; LiHisRS: -2.564%; CoaBC: 0.5089%
* CCc1cnc(N)nc1N(C)CCc1cnn(C)c1 : Pks13 thioesterase: -16.17%; LiHisRS: 7.692%; CoaBC: -0.241%
* CCS(=O)(=O)N1CCC2(CC1)COC(COc1cccnc1)C2 (stereo not drawn) : Pks13 thioesterase: -12.74%; LiHisRS: 28.95%; CoaBC: 9.165%
* COCCN1CCN(c2ccc(C)nn2)Cc2cccnc21 : Pks13 thioesterase: -9.071%; LiHisRS: 8.621%
* O=C(c1ccc(Cl)cc1)N1CCc2nc(C(=O)N3CCCC3)sc2CC1 : Pks13 thioesterase: 20.57%; LiHisRS: -2.857%; CoaBC: -0.3257%
* Cc1noc(C)c1CN(Cc1cccs1)C1CCS(=O)(=O)C1 (stereo not drawn) : Pks13 thioesterase: -22.38%; LiHisRS: -4.464%; CoaBC: 2.171%
* COc1ncccc1CNCc1c(C(C)C)nn(C)c1OC : Pks13 thioesterase: -35.24%; LiHisRS: 0%; CoaBC: 9.504%
* CC(C)(C)S(=O)(=O)CCNC(=O)c1ccc2cc[nH]c2c1 : Pks13 thioesterase: -8.025%; LiHisRS: 15.04%; CoaBC: 6.075%
* CCCC(C)CN1CCC(n2cc(C3CCCC3)nn2)CC1 (stereo not drawn) : Pks13 thioesterase: -20.66%; LiHisRS: 24.27%; CoaBC: 7.143%
* O=C(NCC1CCCO1)c1c(-n2cnnn2)sc2c1CCC2 (stereo not drawn) : Pks13 thioesterase: -24.07%; LiHisRS: 17.14%; CoaBC: 0.9447%
* COc1ccc(F)cc1S(=O)(=O)N1CCC(Oc2ccc(Cl)cn2)CC1 : Pks13 thioesterase: -35.46%; LiHisRS: 15.65%; CoaBC: -0.2114%
* O=S(=O)(c1ccccc1)N1CCCC1c1cc[nH]n1 (stereo not drawn) : Pks13 thioesterase: 0.5485%; LiHisRS: -1.449%; CoaBC: 1.214%
* O=C(c1ccsc1)N1C[C@@H]2CCN(c3cccnc3)C[C@@H]2C1 : Pks13 thioesterase: -15.05%; LiHisRS: -2.941%; CoaBC: 2.792%
* CC(C)CCN1CCCC12Cc1ccccc1CNC2=O (stereo not drawn) : Pks13 thioesterase: -1.976%; LiHisRS: 17.93%; CoaBC: 1.316%
* CC1CCC(N2CCC(NS(=O)(=O)CCOC(C)C)CC2)CC1 (stereo not drawn) : Pks13 thioesterase: -14.09%; LiHisRS: 8.333%; CoaBC: -5.742%
* O=C(NC1COC2(CCN(Cc3ccccn3)CC2)C1)c1ccccn1 (stereo not drawn) : Pks13 thioesterase: -19.2%; LiHisRS: 18.45%; CoaBC: 2.662%
* CC(C)N(C)Cc1n[nH]c2c1CCN(C(=O)c1cc[nH]n1)C2 : Pks13 thioesterase: -12.12%; LiHisRS: 3.191%; CoaBC: 1.777%
* CN(Cc1cccc(OC(F)(F)F)c1)C(=O)c1cnsn1 : Pks13 thioesterase: 19.34%; LiHisRS: 9.756%; CoaBC: -3.435%
* Cc1occc1C(=O)NC1CCN(C(=O)Nc2cccnc2)CC1 : Pks13 thioesterase: -2.462%; LiHisRS: 17.54%; CoaBC: 13.31%
* O=C(Nc1cccc(CNCc2ccsc2)c1)C1CC1 : Pks13 thioesterase: -27.59%; LiHisRS: 1.835%; CoaBC: 4.857%
* CCn1c(NCc2ccc(OC)cc2)nc2c(C)nn(C)c2c1=O : Pks13 thioesterase: -25.38%; LiHisRS: 15.52%; CoaBC: -1.617%
* c1cnn(CC2CN(CCCOc3ccc4c(c3)OCO4)CCO2)c1 (stereo not drawn) : Pks13 thioesterase: -28.92%; LiHisRS: -2.857%; CoaBC: 3.297%
* CC(=O)Nc1nc2c(s1)C1(CCN(C)CC1)Nc1ccccc1S2 : LiHisRS: 14.29%; CoaBC: 1.325%
* CC(C)NC(=O)NC[C@H]1OC[C@@H](NCc2ccc(F)cc2)[C@@H]1O : Pks13 thioesterase: -10.16%; LiHisRS: 13.89%; CoaBC: 7.419%

The last 3 entries again:

{"compound": "c1cnn(CC2CN(CCCOc3ccc4c(c3)OCO4)CCO2)c1", "stereo": "stereo not drawn", "Pks13 thioesterase": -28.92, "LiHisRS": -2.857, "CoaBC": 3.297}
{"compound": "CC(=O)Nc1nc2c(s1)C1(CCN(C)CC1)Nc1ccccc1S2", "LiHisRS": 14.29, "CoaBC": 1.325}
{"compound": "CC(C)NC(=O)NC[C@H]1OC[C@@H](NCc2ccc(F)cc2)[C@@H]1O", "Pks13 thioesterase": -10.16, "LiHisRS": 13.89, "CoaBC": 7.419}